Data reported in the supplement of paper PMC10849652.
The list shows a part of the results.

Sequences of proteins named here, by UniProt entry; tags and fusion partners are left off. A change or cut given only in a name is not applied to a line headed by its entry.
UniProt Q8IW35: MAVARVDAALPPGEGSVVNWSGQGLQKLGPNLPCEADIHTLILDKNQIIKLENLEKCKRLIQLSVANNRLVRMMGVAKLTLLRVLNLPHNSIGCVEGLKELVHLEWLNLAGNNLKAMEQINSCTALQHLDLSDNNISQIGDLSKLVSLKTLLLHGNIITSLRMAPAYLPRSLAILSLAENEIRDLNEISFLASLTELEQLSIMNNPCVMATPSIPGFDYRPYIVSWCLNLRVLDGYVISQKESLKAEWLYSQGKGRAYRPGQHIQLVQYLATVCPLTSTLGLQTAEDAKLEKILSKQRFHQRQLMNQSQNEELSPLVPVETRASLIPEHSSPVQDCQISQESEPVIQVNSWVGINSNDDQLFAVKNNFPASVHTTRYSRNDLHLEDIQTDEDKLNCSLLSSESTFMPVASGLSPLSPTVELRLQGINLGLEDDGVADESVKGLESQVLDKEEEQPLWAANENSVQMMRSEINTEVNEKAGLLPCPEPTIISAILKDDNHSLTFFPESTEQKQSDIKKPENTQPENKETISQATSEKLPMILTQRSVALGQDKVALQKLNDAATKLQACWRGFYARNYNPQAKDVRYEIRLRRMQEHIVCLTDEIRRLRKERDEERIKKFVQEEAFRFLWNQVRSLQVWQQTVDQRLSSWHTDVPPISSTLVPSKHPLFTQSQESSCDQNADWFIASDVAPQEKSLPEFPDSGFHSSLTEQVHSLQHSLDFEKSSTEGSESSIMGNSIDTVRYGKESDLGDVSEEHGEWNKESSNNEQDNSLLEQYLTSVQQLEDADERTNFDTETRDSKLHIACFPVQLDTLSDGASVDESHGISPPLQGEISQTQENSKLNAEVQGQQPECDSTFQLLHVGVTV
UniProt Q5VT25: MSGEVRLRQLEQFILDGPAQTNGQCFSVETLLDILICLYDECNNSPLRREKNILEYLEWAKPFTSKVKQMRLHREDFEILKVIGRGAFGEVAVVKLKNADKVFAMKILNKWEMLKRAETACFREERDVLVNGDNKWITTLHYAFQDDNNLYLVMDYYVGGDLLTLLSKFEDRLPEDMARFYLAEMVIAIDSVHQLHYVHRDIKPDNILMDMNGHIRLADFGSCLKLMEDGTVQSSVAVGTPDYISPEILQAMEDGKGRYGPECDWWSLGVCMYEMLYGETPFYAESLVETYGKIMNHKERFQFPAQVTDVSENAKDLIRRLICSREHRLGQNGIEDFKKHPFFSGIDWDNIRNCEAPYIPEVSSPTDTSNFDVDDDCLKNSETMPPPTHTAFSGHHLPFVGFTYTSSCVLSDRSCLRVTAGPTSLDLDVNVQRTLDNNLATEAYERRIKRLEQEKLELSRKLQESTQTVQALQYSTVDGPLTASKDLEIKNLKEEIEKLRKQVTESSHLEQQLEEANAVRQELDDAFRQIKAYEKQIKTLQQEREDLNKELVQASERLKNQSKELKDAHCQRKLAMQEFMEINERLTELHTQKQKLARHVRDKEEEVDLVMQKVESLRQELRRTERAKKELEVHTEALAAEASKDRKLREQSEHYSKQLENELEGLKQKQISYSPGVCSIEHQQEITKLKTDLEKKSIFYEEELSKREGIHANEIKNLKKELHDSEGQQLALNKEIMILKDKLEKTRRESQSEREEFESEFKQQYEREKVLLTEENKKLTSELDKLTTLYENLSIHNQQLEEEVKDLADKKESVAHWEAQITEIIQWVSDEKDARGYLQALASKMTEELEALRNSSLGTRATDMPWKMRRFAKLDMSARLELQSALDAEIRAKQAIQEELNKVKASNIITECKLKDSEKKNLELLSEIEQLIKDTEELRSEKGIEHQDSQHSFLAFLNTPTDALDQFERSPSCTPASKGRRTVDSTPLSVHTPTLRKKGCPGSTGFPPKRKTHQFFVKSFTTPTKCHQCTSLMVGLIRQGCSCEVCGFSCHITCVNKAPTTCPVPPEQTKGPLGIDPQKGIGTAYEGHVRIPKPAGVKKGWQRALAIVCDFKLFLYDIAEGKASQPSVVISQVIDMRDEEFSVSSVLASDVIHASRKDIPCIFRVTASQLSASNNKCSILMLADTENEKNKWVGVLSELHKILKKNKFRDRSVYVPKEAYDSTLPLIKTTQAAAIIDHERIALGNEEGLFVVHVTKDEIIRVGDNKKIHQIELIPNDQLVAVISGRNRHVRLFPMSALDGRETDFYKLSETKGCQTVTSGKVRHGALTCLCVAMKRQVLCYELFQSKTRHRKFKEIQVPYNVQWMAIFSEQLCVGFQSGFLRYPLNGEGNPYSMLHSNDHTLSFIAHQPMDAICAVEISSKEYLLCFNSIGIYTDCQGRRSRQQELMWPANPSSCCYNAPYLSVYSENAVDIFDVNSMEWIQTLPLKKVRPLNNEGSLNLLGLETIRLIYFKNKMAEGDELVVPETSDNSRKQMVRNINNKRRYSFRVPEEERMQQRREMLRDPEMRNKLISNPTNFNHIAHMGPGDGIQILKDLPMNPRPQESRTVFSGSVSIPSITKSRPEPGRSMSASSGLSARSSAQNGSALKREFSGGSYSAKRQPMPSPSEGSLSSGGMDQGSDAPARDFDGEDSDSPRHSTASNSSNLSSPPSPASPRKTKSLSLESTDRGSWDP
UniProt Q66GS9: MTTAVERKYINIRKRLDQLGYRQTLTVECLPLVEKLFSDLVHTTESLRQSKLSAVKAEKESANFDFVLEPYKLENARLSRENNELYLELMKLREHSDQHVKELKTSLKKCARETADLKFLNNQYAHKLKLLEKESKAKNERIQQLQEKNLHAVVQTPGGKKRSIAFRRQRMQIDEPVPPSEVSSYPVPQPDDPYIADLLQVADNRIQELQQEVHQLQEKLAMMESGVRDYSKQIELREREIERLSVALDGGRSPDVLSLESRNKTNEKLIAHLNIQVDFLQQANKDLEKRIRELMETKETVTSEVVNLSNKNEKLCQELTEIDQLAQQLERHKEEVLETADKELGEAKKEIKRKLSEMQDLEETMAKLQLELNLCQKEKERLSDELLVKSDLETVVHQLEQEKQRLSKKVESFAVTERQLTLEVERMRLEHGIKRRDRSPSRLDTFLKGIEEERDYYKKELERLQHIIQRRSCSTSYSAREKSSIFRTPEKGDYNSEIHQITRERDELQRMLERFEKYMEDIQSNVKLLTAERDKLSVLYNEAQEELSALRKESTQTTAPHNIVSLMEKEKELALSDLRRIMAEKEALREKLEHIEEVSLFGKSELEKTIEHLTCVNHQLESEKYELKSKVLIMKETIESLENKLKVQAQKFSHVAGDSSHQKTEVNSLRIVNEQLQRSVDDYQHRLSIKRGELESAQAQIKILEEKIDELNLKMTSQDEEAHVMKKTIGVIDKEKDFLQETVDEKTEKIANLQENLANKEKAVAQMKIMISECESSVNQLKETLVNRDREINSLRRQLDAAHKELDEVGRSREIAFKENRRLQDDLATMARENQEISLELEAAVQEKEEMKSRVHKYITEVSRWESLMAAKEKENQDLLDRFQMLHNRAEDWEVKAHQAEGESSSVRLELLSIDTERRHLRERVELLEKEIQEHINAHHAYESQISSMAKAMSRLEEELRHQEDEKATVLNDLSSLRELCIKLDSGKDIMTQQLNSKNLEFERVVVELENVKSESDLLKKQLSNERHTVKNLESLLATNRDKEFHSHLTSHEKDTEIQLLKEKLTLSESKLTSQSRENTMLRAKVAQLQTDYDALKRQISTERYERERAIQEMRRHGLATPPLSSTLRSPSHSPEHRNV
UniProt Q9Y6K0: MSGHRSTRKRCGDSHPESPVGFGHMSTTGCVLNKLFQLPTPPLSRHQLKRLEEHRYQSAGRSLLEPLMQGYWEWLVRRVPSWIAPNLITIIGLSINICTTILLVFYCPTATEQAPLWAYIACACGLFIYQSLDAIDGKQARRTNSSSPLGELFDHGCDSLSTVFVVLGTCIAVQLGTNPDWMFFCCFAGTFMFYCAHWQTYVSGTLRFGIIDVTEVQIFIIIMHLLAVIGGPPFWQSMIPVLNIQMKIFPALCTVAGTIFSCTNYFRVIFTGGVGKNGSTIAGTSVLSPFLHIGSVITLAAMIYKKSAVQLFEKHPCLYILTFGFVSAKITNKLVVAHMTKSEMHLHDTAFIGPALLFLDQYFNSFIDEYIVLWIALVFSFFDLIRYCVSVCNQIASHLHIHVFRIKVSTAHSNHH
UniProt O15182: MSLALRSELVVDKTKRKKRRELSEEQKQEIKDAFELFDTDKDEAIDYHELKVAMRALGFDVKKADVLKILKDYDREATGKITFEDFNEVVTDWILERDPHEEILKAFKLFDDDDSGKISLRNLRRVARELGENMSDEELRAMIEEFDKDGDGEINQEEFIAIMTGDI
UniProt Q96G23: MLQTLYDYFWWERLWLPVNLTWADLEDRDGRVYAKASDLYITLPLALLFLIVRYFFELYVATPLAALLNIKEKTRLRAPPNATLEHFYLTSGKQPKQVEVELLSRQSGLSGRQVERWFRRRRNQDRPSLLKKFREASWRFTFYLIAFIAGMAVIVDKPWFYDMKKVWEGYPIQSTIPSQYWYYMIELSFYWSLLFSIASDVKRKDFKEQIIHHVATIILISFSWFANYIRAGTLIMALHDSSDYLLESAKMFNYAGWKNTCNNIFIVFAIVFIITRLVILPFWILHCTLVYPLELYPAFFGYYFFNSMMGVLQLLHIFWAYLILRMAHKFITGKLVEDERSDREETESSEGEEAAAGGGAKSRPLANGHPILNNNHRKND
UniProt Q12834, whole entry, looked up: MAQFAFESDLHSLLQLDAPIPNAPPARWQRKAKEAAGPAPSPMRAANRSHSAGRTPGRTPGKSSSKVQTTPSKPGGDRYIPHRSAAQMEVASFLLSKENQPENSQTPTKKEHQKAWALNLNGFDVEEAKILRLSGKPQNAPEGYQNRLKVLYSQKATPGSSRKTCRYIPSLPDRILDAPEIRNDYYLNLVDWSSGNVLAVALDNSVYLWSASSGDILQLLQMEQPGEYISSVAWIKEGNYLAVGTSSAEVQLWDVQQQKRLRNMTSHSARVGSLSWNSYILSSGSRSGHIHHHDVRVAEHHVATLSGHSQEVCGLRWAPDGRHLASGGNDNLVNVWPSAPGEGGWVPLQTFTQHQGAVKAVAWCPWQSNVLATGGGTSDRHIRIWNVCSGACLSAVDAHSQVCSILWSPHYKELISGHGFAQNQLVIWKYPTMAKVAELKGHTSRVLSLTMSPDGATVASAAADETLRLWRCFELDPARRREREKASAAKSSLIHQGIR
UniProt P60953, whole entry, looked up: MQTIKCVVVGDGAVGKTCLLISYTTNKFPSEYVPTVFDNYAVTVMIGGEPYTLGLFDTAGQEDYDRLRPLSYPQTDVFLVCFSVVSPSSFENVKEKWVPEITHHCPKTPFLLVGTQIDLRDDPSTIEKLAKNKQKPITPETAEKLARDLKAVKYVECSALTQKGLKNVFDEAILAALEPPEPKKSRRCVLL
UniProt Q9NRR3: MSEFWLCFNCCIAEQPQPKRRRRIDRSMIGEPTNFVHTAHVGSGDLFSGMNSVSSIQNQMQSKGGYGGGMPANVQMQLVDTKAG
UniProt P49918: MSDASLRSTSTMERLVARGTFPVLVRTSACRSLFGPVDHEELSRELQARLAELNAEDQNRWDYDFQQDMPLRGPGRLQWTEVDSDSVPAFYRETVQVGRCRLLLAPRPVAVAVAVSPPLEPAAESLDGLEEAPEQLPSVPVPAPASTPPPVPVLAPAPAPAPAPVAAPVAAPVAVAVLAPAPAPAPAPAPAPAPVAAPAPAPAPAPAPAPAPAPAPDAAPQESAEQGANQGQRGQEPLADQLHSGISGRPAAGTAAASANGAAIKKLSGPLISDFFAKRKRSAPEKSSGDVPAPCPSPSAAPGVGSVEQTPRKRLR
UniProt Q15517: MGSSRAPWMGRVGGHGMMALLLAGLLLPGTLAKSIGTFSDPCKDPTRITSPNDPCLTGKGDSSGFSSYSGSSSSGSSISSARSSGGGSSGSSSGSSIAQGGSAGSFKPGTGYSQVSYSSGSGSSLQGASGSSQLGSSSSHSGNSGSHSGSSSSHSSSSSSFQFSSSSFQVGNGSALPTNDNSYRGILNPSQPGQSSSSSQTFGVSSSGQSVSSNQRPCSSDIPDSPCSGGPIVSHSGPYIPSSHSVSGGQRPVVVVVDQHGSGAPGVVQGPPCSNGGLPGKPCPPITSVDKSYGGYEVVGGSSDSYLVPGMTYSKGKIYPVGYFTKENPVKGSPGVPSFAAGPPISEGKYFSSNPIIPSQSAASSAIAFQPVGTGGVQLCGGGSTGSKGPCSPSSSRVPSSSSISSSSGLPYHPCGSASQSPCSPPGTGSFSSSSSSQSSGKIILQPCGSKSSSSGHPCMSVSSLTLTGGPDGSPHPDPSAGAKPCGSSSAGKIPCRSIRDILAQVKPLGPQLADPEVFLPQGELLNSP

What was measured:
Assay in all cases: log2 fold change, soluble protein after heating vs DMSO (PISA); higher = thermal stabilisation; K562 lysate, 10 uM; active = over 0.2 and 3.5 SD of the protein, either way, in both replicates (recomputed)
vemurafenib = compound: CCCS(=O)(=O)Nc1ccc(F)c(C(=O)c2c[nH]c3ncc(-c4ccc(Cl)cc4)cc23)c1F [vemurafenib]
In short: (§1)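 Following dounce homogenisation of K562 pellets in PBS pH 7.4 with 1 mM MgCl2, crude extract at 1 mg/mL protein was incubated for 30 min with 10 μM compound. Aliquots were then heated for 3 min over 48°C-58°C and pooled, NP-40 was added to 0.5% at 4°C, and soluble protein was recovered as the supernatant at 21,000xg for 90 min. Channel-sum-equalised TMTpro 16plex LC-MS/MS quantified this protein. Each value, from duplicates, is a log-two fold change in thermal stability relative to solvent controls.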

[1] = compound: CCCS(=O)(=O)Nc1ccc(F)c(C(=O)c2c[nH]c3ncc(Cl)cc23)c1F
In short: as §1

barasertib = compound: CCN(CCCOc1ccc2c(Nc3cc(CC(=O)Nc4cccc(F)c4)[nH]n3)ncnc2c1)CCOP(=O)(O)O [barasertib]
In short: as §1

[2] = compound: CC[C@@H]1C(=O)N(C)c2cnc(Nc3ccc(C(=O)NC4CCN(C)CC4)cc3OC)nc2N1C1CCCC1
In short: as §1

volasertib = compound: CC[C@@H]1C(=O)N(C)c2cnc(Nc3ccc(C(=O)N[C@H]4CC[C@H](N5CCN(CC6CC6)CC5)CC4)cc3OC)nc2N1C(C)C [volasertib]
In short: as §1

[3] = compound: CCn1c(C(=O)N(C2CC2)C2CC2)cc2c3c(ncn3C)c(Nc3cc(C)n(C)n3)nc21
In short: as §1

[4] = compound: CCn1cc(-c2ccnc3[nH]c(-c4cccc(CN(C)C)c4)cc23)c(-c2ccc(NC(=O)N(C)C)cc2)n1
In short: as §1

[5] = compound: CN1CCC(CNc2ccc3ncc(-c4cccc(OC(F)(F)F)c4)n3n2)CC1
In short: as §1

saracatinib = compound: CN1CCN(CCOc2cc(OC3CCOCC3)c3c(Nc4c(Cl)ccc5c4OCO5)ncnc3c2)CC1 [saracatinib]
In short: as §1

sotrastaurin = compound: CN1CCN(c2nc(C3=C(c4c[nH]c5ccccc45)C(=O)NC3=O)c3ccccc3n2)CC1 [sotrastaurin]
In short: as §1

alvocidib = compound: CN1CC[C@H](c2c(O)cc(O)c3c(=O)cc(-c4ccccc4Cl)oc23)[C@H](O)C1 [alvocidib]
In short: as §1

Tubastatin A = compound: CN1CCc2c(c3ccccc3n2Cc2ccc(C(=O)NO)cc2)C1 [Tubastatin A]
In short: as §1

[6] = compound: CNC(=O)C1=CC=CC=C1NC2=NC(=NC=C2Cl)NC3=C(C=C(C=C3)N4CCOCC4)OC
In short: as §1

defactinib = compound: CNC(=O)c1ccc(Nc2ncc(C(F)(F)F)c(NCc3nccnc3N(C)S(C)(=O)=O)n2)cc1 [defactinib]
In short: as §1

[7] = compound: CNc1nc(-c2ccc3c(N)n[nH]c3c2)cc(N2C[C@@H](C(=O)NC3CCCCC3)CC[C@H]2C)n1
In short: as §1

encorafenib = compound: COC(=O)N[C@@H](C)CNc1nccc(-c2cn(C(C)C)nc2-c2cc(Cl)cc(NS(C)(=O)=O)c2F)n1 [encorafenib]
In short: as §1

[8] = compound: COC(=O)[C@H](CCSC)NC(=O)C1=C(C=C(C=C1)NC[C@H](CS)N)C2=CC=CC=C2
In short: as §1

alisertib = compound: COc1cc(Nc2ncc3c(n2)-c2ccc(Cl)cc2C(c2c(F)cccc2OC)=NC3)ccc1C(=O)O [alisertib]
In short: as §1

[9] = compound: COc1cc2nc(-c3cc(F)ccc3O)nc(N[C@@H]3CNC[C@H]3C(C)(C)O)c2cc1OC
In short: as §1

gefitinib = compound: COc1cc2ncnc(Nc3ccc(F)c(Cl)c3)c2cc1OCCCN1CCOCC1 [gefitinib]
In short: as §1

Measured: log2 fold change

CEP97 (UniProt Q8IW35)
inactive: vemurafenib 0.023 | [1] -0.042 | barasertib 0.074 | [2] -0.031 | volasertib -0.003 | [3] -0.002 | [4] -0.026 | [5] -0.011 | saracatinib 0.033 | sotrastaurin 0.026 | alvocidib -0.057 | Tubastatin A -0.083 | [6] -0.026 | defactinib -0.024 | [7] -0.027 | encorafenib -0.009 | [8] 0.068 | alisertib 0.056 | [9] -0.022 | gefitinib 0.022

CEP250 (UniProt Q9BV73)
inactive: vemurafenib 0.002 | [1] 0.044 | barasertib 0.038 | [2] 0.01 | volasertib -0.033 | [3] -0.007 | [4] -0.016 | [5] 0.012 | saracatinib 0.032 | sotrastaurin -0.014 | alvocidib -0.006 | Tubastatin A -0.012 | [6] 0.051 | defactinib -0.065 | [7] 0.216 | encorafenib -0.036 | [8] 0.039 | alisertib -0.041 | [9] -0.07 | gefitinib -0.024

CDC42BPA isoform 6 (UniProt Q5VT25)
inactive: vemurafenib 0.01 | [1] 0.036 | barasertib -0.006 | [2] -0.111 | volasertib -0.043 | [3] 0.021 | [4] 0.062 | [5] -0.118 | saracatinib -0.021 | sotrastaurin -0.023 | alvocidib -0.099 | Tubastatin A -0.13 | [6] -0.015 | defactinib -0.002 | [7] -0.065 | encorafenib 0.017 | [8] 0.093 | alisertib -0.005 | [9] -0.019 | gefitinib -0.004

CDCP1 (UniProt Q9H5V8)
inactive: vemurafenib -0.009 | [1] 0.029 | barasertib 0.017 | [2] -0.071 | volasertib 0.012 | [3] -0.017 | [4] -0.074 | [5] 0.078 | saracatinib 0.018 | sotrastaurin 0.011 | alvocidib -0.058 | Tubastatin A 0.022 | [6] -0.036 | defactinib -0.036 | [7] -0.045 | encorafenib 0.01 | [8] -0.102 | alisertib -0.015 | [9] 0.001 | gefitinib 0.014

CEP135 (UniProt Q66GS9)
inactive: vemurafenib -0.02 | [1] 0.049 | barasertib 0.07 | [2] -0.076 | volasertib 0.004 | [3] -0.02 | [4] -0.126 | [5] 0.048 | saracatinib 0.035 | sotrastaurin 0.007 | alvocidib -0.031 | Tubastatin A -0.014 | [6] 0.101 | defactinib 0.008 | [7] -0.037 | encorafenib 0.009 | [8] 0.032 | alisertib -0.02 | [9] 0.029 | gefitinib -0.072

CEPT1 (UniProt Q9Y6K0)
inactive: vemurafenib -0.031 | [1] 0.006 | barasertib 0.08 | [2] -0.006 | volasertib 0.042 | [3] -0.079 | [4] -0.102 | [5] 0.084 | saracatinib 0.037 | sotrastaurin -0.008 | alvocidib -0.012 | Tubastatin A 0.055 | [6] -0.024 | defactinib 0 | [7] -0.051 | encorafenib 0.019 | [8] -0.025 | alisertib 0.054 | [9] -0.123 | gefitinib -0.036

2 records drawn at random from the list so far, as already listed:
CEPT1 (UniProt Q9Y6K0)
inactive: vemurafenib -0.031 | [1] 0.006 | barasertib 0.08 | [2] -0.006 | volasertib 0.042 | [3] -0.079 | [4] -0.102 | [5] 0.084 | saracatinib 0.037 | sotrastaurin -0.008 | alvocidib -0.012 | Tubastatin A 0.055 | [6] -0.024 | defactinib 0 | [7] -0.051 | encorafenib 0.019 | [8] -0.025 | alisertib 0.054 | [9] -0.123 | gefitinib -0.036

CDC42BPA isoform 6 (UniProt Q5VT25)
inactive: vemurafenib 0.01 | [1] 0.036 | barasertib -0.006 | [2] -0.111 | volasertib -0.043 | [3] 0.021 | [4] 0.062 | [5] -0.118 | saracatinib -0.021 | sotrastaurin -0.023 | alvocidib -0.099 | Tubastatin A -0.13 | [6] -0.015 | defactinib -0.002 | [7] -0.065 | encorafenib 0.017 | [8] 0.093 | alisertib -0.005 | [9] -0.019 | gefitinib -0.004

Remaining list, next part

CETN3 (UniProt O15182)
inactive: vemurafenib -0.048 | [1] 0.008 | barasertib -0.105 | [2] 0.018 | volasertib -0.028 | [3] 0.01 | [4] -0.028 | [5] -0.035 | saracatinib 0.003 | sotrastaurin 0.043 | alvocidib -0.007 | Tubastatin A -0.01 | [6] -0.052 | defactinib -0.018 | [7] -0.216 | encorafenib 0.049 | [8] -0.027 | alisertib 0.042 | [9] -0.042 | gefitinib 0.079

CERS2 (UniProt Q96G23)
inactive: vemurafenib 0 | [1] 0.084 | barasertib 0.035 | [2] 0.025 | volasertib -0.01 | [3] 0.009 | [4] 0.06 | [5] -0.037 | saracatinib 0.009 | sotrastaurin 0.088 | alvocidib 0.051 | Tubastatin A -0.113 | [6] 0.094 | defactinib 0.046 | [7] 0.001 | encorafenib -0.023 | [8] -0.027 | alisertib 0.035 | [9] 0.031 | gefitinib -0.042

CDC20 (UniProt Q12834)
inactive: vemurafenib 0.19 | [1] 0.054 | barasertib 0.049 | [2] 0.016 | volasertib -0.023 | [3] -0.067 | [4] 0.024 | [5] 0.016 | saracatinib 0.103 | sotrastaurin -0.012 | alvocidib -0.009 | Tubastatin A -0.01 | [6] 0.067 | defactinib -0.298 | [7] 0.111 | encorafenib 0.115 | [8] 0.056 | alisertib 0.039 | [9] 0.099 | gefitinib 0.058

CDK4 (UniProt P11802)
inactive: vemurafenib -0.004 | [1] 0.029 | barasertib 0.069 | [2] -0.015 | volasertib -0.03 | [3] -0.031 | [4] 0.274 | [5] -0.023 | saracatinib 0.043 | sotrastaurin 0.034 | alvocidib 0.11 | Tubastatin A -0.028 | [6] 0.065 | defactinib 0.091 | [7] -0.001 | encorafenib 0.065 | [8] 0.025 | alisertib 0.002 | [9] 0.012 | gefitinib 0.002

CDC42 (UniProt P60953)
inactive: vemurafenib -0.064 | [1] -0.032 | barasertib -0.019 | [2] 0.101 | volasertib -0.017 | [3] 0.024 | [4] 0.159 | [5] -0.148 | saracatinib 0.001 | sotrastaurin -0.008 | alvocidib 0.023 | Tubastatin A 0.045 | [6] -0.069 | defactinib -0.052 | [7] 0.04 | encorafenib -0.039 | [8] 0.013 | alisertib -0.104 | [9] 0.025 | gefitinib 0.086

CDK6 (UniProt Q00534)
inactive: vemurafenib -0.025 | [1] -0.002 | barasertib -0.001 | [2] -0.05 | volasertib 0.008 | [3] -0.006 | [4] -0.011 | [5] -0.004 | saracatinib -0.013 | sotrastaurin 0.009 | alvocidib 0.086 | Tubastatin A 0.003 | [6] -0.018 | defactinib -0.008 | [7] -0.013 | encorafenib 0.009 | [8] 0.025 | alisertib -0.004 | [9] -0.014 | gefitinib -0.012

CDC42SE2 (UniProt Q9NRR3)
inactive: vemurafenib -0.061 | [1] -0.002 | barasertib -0.036 | [2] 0.009 | volasertib 0.058 | [3] -0.037 | [4] 0.009 | [5] -0.112 | saracatinib -0.028 | sotrastaurin -0.024 | alvocidib -0.055 | Tubastatin A 0.065 | [6] 0.04 | defactinib 0.003 | [7] 0.019 | encorafenib 0.022 | [8] 0.026 | alisertib 0.096 | [9] -0.094 | gefitinib -0.14

CDKN1C (UniProt P49918)
inactive: vemurafenib -0.275 | [1] -0.003 | barasertib -0.041 | [2] 0.027 | volasertib -0.066 | [3] 0.019 | [4] 0.073 | [5] 0.03 | saracatinib -0.14 | sotrastaurin -0.054 | alvocidib -0.035 | Tubastatin A -0.056 | [6] 0.025 | defactinib -0.186 | [7] -0.067 | encorafenib -0.037 | [8] -0.019 | alisertib -0.082 | [9] 0.046 | gefitinib -0.136

CDSN (UniProt Q15517)
inactive: vemurafenib 0.356 | [1] -0.097 | barasertib -0.931 | [2] 0.063 | volasertib 0 | [3] -0.085 | [4] 0.212 | [5] -0.041 | saracatinib -0.014 | sotrastaurin -0.032 | alvocidib 0.039 | Tubastatin A 0.227 | [6] -0.029 | defactinib 0.12 | [7] 0.017 | encorafenib -0.004 | [8] -0.186 | alisertib -0.253 | [9] 0.081 | gefitinib 0.863
